## Percent effect of library compounds

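Assay of Toxoplasma gondii numbers, read through their beta-galactosidase reporter with a colour substrate. Compounds at 50 µM. The record gives no direction; the compounds picked for IC50 retests had high values, so higher reads as fewer parasites. Of about 18,000 compounds tested this way, about 170 (0.94%) reached 50% or more in at least one test.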

Results are given as percent effect.
How 0% and 100% were set is not recorded. Most values in the screen are low, and negative values occur.
This is an unselected part of the compounds tested.

For Cn1ccnc1C1CCCN(C(=O)C(C)(C)N)C1 (stereo not shown) the result was 20.7%. With CC(O)CCN(C)Cc1cscn1 (stereo not shown) the screen gave 1.734%. Cc1ccc(C(=O)NCCNC(=O)c2ccco2)cc1 gave 3.795%. O=S(=O)(CCN1CCCC(O)C1)c1ccc(Br)cc1 (stereo not shown) read 7.501%.

NS(=O)(=O)CC1CCN(c2ncc(Br)cn2)CC1 gave -25.85%. Result for CCOc1cccc(NC(=O)NC(C)(C)CCO)c1 was 1.431%. Result for COC(CN)C1CCCC1 (stereo not shown) was 10.05%. With CCC1CN(C(=O)c2sccc2N)CCN1C(C)C (stereo not shown) the screen gave 4.977%.

CNC(=O)c1ccc(CNc2cncc(C)c2)cc1 read -2.58%. For CCS(=O)(=O)CCNC(C)(CO)C1CCCCC1 (stereo not shown) the result was -6.595%. With COc1ccccc1CNCCCSc1nnnn1C the screen gave -1.639%. NC(=O)CCSc1nc2ncccn2n1 read -6.184%.

With COC(CN)C1CCCCC1 (stereo not shown) the screen gave -3.838%. Cc1cc(C(=O)N2CCOCC2C#N)ccc1Cl (stereo not shown) gave 2.018%. COC(=O)CCN(C)CC(=O)Nc1cc(C)ccn1 read -3.076%. For OCC1(O)CCCN(Cc2ccccc2)C1 (stereo not shown) the result was 2.453%.

For COc1cccc(-c2ccc(CNS(N)(=O)=O)cc2)c1 the result was 3.287%. With CCc1nc(C)c(C(=O)N2CCOCC(O)C2)o1 (stereo not shown) the screen gave -4.936%. For CCCN(CCO)CC(=O)N1CCCC(C)C1 (stereo not shown) the result was -2.492%. CN(CC(=O)Nc1ccn(C)n1)CC1(C)COC1 gave -4.917%.

For CC(C)NC(=O)c1cc2c([nH]c1=O)CCCC2 the result was 1.568%. CC(=O)c1cccc(OCC(=O)NC2CCCC2)c1 read -4.665%. For O=C(NCC1CC1)C1CCCN(CC2CC2)C1 (stereo not shown) the result was 11.78%. For O=C(Cc1cn2ccsc2n1)NCC1CCC1 the result was 2.142%.

Result for N[C@@H]1C[C@H]1c1ccc(F)c(F)c1 was 28.98%. For CNc1ccnc(NCCS(=O)(=O)N2CCCC2)n1 the result was 15.97%. With CC[C@@H](O)CN1CCN(C(=O)NC(C)C)CC1 the screen gave 4.465%. For COc1ccc(COCCNC(C)=O)cc1 the result was 0.4241%.

CCN1CCN(C2CCNCC2)CC1 read -4.696%. Result for CC(=O)N1CCCN(c2nc3ccccc3[nH]2)CC1 was 4.759%.

For reference, 2 entries once more:

| SMILES | Percent Effect |
|---|---|
| `OCC1(O)CCCN(Cc2ccccc2)C1` (stereo not shown) | 2.453% |
| `CC(O)CCN(C)Cc1cscn1` (stereo not shown) | 1.734% |

Data taken from ChEMBL document CHEMBL3988442, “University of Dundee, Small-Polar-MMV Screening Library” (2021).